Data published in publication PMC4721948.
These are yes or no findings as the source states them, for the method shown. In cells and extracts the contact can be indirect. For some assays here: Binding can be weak; no strength is given. Values belong to the molecule of their own block, whether it stands above or below them.

Key:
[1] = target: T1, APPL1 (adaptor protein containing pleckstrin homology domain, phosphotyrosine binding domain and leucine zipper motif), wild type (UniProt Q9UKG1); test: co-IP; lysates of transfected HEK293 cells overexpressing APP (APPwt, APPmv or APP_(AENATA)) and APPL1 (wt or ΔPTB); IP with antibodies against APPL1 or against APP (C1/6.1 or 6E10), immunoblot; 10% of total lysate as input
T1 sequence: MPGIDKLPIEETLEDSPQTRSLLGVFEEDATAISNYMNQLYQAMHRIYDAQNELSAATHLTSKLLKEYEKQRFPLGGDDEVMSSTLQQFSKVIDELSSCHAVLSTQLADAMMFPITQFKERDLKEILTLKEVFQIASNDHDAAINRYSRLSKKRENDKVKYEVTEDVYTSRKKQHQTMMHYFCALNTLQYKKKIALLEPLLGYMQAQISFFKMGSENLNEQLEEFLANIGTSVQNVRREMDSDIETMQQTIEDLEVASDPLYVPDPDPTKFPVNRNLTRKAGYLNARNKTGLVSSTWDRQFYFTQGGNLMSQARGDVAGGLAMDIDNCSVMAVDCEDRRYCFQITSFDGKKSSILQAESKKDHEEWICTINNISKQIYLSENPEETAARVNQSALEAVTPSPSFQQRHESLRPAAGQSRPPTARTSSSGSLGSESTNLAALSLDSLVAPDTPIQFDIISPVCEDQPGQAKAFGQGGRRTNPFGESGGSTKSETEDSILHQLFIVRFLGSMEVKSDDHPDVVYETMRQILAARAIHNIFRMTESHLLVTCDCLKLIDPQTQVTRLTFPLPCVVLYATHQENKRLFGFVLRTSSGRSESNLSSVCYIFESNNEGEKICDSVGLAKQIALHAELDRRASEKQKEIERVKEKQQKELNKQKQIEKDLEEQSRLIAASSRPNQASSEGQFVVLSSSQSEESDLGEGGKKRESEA

[2] = target: β-cleaved carboxy-terminal fragment of APP (βCTF) (human); test: as above
[3] = target: β-cleaved carboxy-terminal fragment of APP (βCTF), in N2a cells overexpressing APPwt (human); test: co-IP; lysates of N2a cells overexpressing APPwt and APPL1wt, treated with MiTMAB (dynamin I and II inhibitor) to block endocytosis; IP with C1/6.1 or APPL1 antibody, immunoblot
[4] = target: β-cleaved carboxy-terminal fragment of APP (βCTF), in N2a cells overexpressing APPwt (human); test: co-IP; lysates of N2a cells overexpressing APPwt and APPL1wt, treated with promyristic acid (inactive form of MiTMAB, negative control); IP with C1/6.1 or APPL1 antibody, immunoblot
[5] = target: β-cleaved carboxy-terminal fragment of APP (βCTF), in N2a cells overexpressing APPwt (human); test: condition: only cells treated with MiTMAB (dynamin inhibitor, blocks endocytosis); co-IP; lysates of N2a cells overexpressing APPwt and APPL1wt, treated with MiTMAB (dynamin I and II inhibitor) to block endocytosis; IP with C1/6.1 or APPL1 antibody, immunoblot

binding [1]: no binding
Molecule: α-cleaved carboxy-terminal fragment of APP (αCTF) (human) (domain or fragment)

binding [2]: binds
B1: APPL1 (adaptor protein containing pleckstrin homology domain, phosphotyrosine binding domain and leucine zipper motif), wild type (protein, UniProt Q9UKG1 1-709)
chain: MPGIDKLPIEETLEDSPQTRSLLGVFEEDATAISNYMNQLYQAMHRIYDAQNELSAATHLTSKLLKEYEKQRFPLGGDDEVMSSTLQQFSKVIDELSSCHAVLSTQLADAMMFPITQFKERDLKEILTLKEVFQIASNDHDAAINRYSRLSKKRENDKVKYEVTEDVYTSRKKQHQTMMHYFCALNTLQYKKKIALLEPLLGYMQAQISFFKMGSENLNEQLEEFLANIGTSVQNVRREMDSDIETMQQTIEDLEVASDPLYVPDPDPTKFPVNRNLTRKAGYLNARNKTGLVSSTWDRQFYFTQGGNLMSQARGDVAGGLAMDIDNCSVMAVDCEDRRYCFQITSFDGKKSSILQAESKKDHEEWICTINNISKQIYLSENPEETAARVNQSALEAVTPSPSFQQRHESLRPAAGQSRPPTARTSSSGSLGSESTNLAALSLDSLVAPDTPIQFDIISPVCEDQPGQAKAFGQGGRRTNPFGESGGSTKSETEDSILHQLFIVRFLGSMEVKSDDHPDVVYETMRQILAARAIHNIFRMTESHLLVTCDCLKLIDPQTQVTRLTFPLPCVVLYATHQENKRLFGFVLRTSSGRSESNLSSVCYIFESNNEGEKICDSVGLAKQIALHAELDRRASEKQKEIERVKEKQQKELNKQKQIEKDLEEQSRLIAASSRPNQASSEGQFVVLSSSQSEESDLGEGGKKRESEA

binding [3]: binds
binding [4]: binds
binding [5]: no binding
B2: APPL1, wild type, overexpressed in N2a cells (protein, UniProt Q9UKG1 1-709)
chain: MPGIDKLPIEETLEDSPQTRSLLGVFEEDATAISNYMNQLYQAMHRIYDAQNELSAATHLTSKLLKEYEKQRFPLGGDDEVMSSTLQQFSKVIDELSSCHAVLSTQLADAMMFPITQFKERDLKEILTLKEVFQIASNDHDAAINRYSRLSKKRENDKVKYEVTEDVYTSRKKQHQTMMHYFCALNTLQYKKKIALLEPLLGYMQAQISFFKMGSENLNEQLEEFLANIGTSVQNVRREMDSDIETMQQTIEDLEVASDPLYVPDPDPTKFPVNRNLTRKAGYLNARNKTGLVSSTWDRQFYFTQGGNLMSQARGDVAGGLAMDIDNCSVMAVDCEDRRYCFQITSFDGKKSSILQAESKKDHEEWICTINNISKQIYLSENPEETAARVNQSALEAVTPSPSFQQRHESLRPAAGQSRPPTARTSSSGSLGSESTNLAALSLDSLVAPDTPIQFDIISPVCEDQPGQAKAFGQGGRRTNPFGESGGSTKSETEDSILHQLFIVRFLGSMEVKSDDHPDVVYETMRQILAARAIHNIFRMTESHLLVTCDCLKLIDPQTQVTRLTFPLPCVVLYATHQENKRLFGFVLRTSSGRSESNLSSVCYIFESNNEGEKICDSVGLAKQIALHAELDRRASEKQKEIERVKEKQQKELNKQKQIEKDLEEQSRLIAASSRPNQASSEGQFVVLSSSQSEESDLGEGGKKRESEA
